# Experimental data as given in US11166924B2, “N-methyl-d-aspartate receptor allosteric modulators and methods for their use” (Qingdao Primedicine Pharmaceutical Company, Ltd., priority 2016, dated 2021).
# At least one structure is not confirmed: it was looked up by name or label, or the drawing left a doubt.
# System: CREB phosphorylation (pCREB) on Serine 133
# Experiment: pCREB levels in hippocampal slices
# Set-up: species or system rat
# Settings: 10 μM; 30 min exposure; FIG. 21
# Method: Male Sprague Dawley rats 4-8 weeks old (125-200 gm) were decapitated, and their brains were dissected rapidly and placed into ice-cold chopping saline [containing (in mM): 110 sucrose, 60 NaCl, 3 KCl, 1.25 NaH2PO4, 28 NaHCO3, 5 D-glucose, 0.5 CaCl2, 7 MgCl2, and 0.6 ascorbate, saturated with 95% O2/5% CO2]. Then 400 μm transverse slices were prepared with a Vibratome Series 1000 (Pelco, Ted Pella, Redding, Calif.). Slices were transferred immediately into a 1:1 mix of chopping saline and normal ACSF [containing (in mM): 125 NaCl, 2.5 KCl, 1.25 NaH2PO4, 25 NaHCO3, 10 D-glucose, 2 CaCl2, and 1 MgCl2, saturated with 95% O2/5% CO2] and maintained at room temperature for at least 90 min. Then the slices were transferred to ACSF at 32° C. in a submersion chamber for 45-60 min before pharmacological stimulation.
# Brain tissues or cultured cells were lysed on ice in the lysis buffer and then the solution was centrifuged at 14,000 rpm for 10 min at 4° C. Next, the supernatant was collected and protein concentrations were determined using a BCA protein assay kit (Thermo Scientific, 23227). […] The band density of each protein was quantified by the Bio-Rad Quantity One software and the relative optical density was analyzed relative to loading total-CREB on the same membrane. […]
structure (smiles),measurement,value
"CN1CCc2cc3c(cc2[C@H]1[C@@H]1OC(=O)c2c1ccc1c2OCO1)OCO3 [BiC, bicuculline, reference compound]",pCREB levels in hippocampal slices,increased pCREB levels
